Experimental data published in PMC3234227.
No constants are given. Whether binding was seen depends on the method and setting. In cells and extracts the contact can be indirect.

Molecular target: FLAG-SQSTM1 (HeLa) (human), Q13501
Assay: co-IP
Settings: remark: other sources report otherwise

B1: endogenous ATG5 (HeLa), Q9H1Y0 1-275 (protein)
chain: MTDDKDVLRDVWFGRIPTCFTLYQDEITEREAEPYYLLLPRVSYLTLVTDKVKKHFQKVMRQEDISEIWFEYEGTPLKWHYPIGLLFDLLASSSALPWNITVHFKSFPEKDLLHCPSKDAIEAHFMSCMKEADALKHKSQVINEMQKKDHKQLWMGLQNDRFDQFWAINRKLMEYPAEENGFRYIPFRIYQTTTERPFIQKLFRPVAADGQLHTLGDLLKEVCPSAIDPEDGEKKNQVMIHGIEPMLETPLQWLSEHLSYPDNFLHISIIPQPTD
binding: no binding
